Measurements as given in PubChem BioAssay AID2685 (National Center for Advancing Translational Sciences (NCATS), 2010).
Out of some 320,000 compounds screened, about 2,100 (0.66%) were called active. The inconclusive results got no clear call from the source; some entries with a clear call stand among them for comparison. The call rests on the fitted dose curve; in most records, active means well fitted inhibition curve with a large enough effect in the signal ratio, with a control signal flat (not every such curve was filed as active); inconclusive means small, poorly fitted or top-dose-only effect, or effect the other way, or a change in a side signal; inactive means flat fitted curve, though single readings scatter; the % refers to the signal ratio. A potency beside an inconclusive call is a rough fit, not a confirmed value.

Experiment: qHTS Assay for Lipid Storage Modulators in Drosophila S3 Cells
Details: BODIPY lipid droplet fluorescence, 18-24 h, cells fed with added oleic acid; lipid storage change, negative = inhibition: at 46.1 µM (top of the series) unless noted
Procedure, shortened: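 Drosophila S3 cells got compounds at several concentrations plus oleic acid (400 uM solution). Laser-scanning cytometry with 488 nm excitation read lipid droplets at 500-530 nm and cells at 575-640 nm. Percent activity was relative to 20 uM Triacsin C.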
On the % scale 0 is the no-effect control and ±100 the full control effect; potency means the concentration at half of the fitted maximal effect.

| Structure (SMILES) | Potency | lipid storage change, negative = inhibition |
| --- | --- | --- |
| CC(C)(C)CC(=O)Nc1ccc(-c2cn3cccnc3n2)cc1 | inconclusive: 4.11 µM [falling, full curve] | – |
| CCOc1cc(/C=N/O)cc(Cl)c1OC | – | inconclusive: 12.5% |
| O=CN1CCN(C(=O)COc2ccc(Cl)cc2Br)CC1 | inconclusive: 29.1 µM [activator, single point] | – |
| O=[N+]([O-])c1ccc(/C=N/Nc2nc(N3CCCCCC3)nc(N3CCCCCC3)n2)o1 | – | inconclusive: -16.8% |
| CCOC(=O)c1sc(N)c(C#N)c1COC(=O)CNC(=O)c1ccccc1 | inconclusive: 10.3 µM [activator, partial curve, poor fit] | – |
| CCN(CC)CCN1C(=O)C(=O)/C(=C(/O)c2ccc(S(=O)(=O)N3CCOCC3)cc2)C1c1ccc(C)cc1 (centres undefined) | – | inconclusive: -31.8% |
| Cc1csc(NC(=O)CSc2sc3c(O)cc(=O)[nH]c3c2C#N)n1 | inconclusive: 0.517 µM [activator, full curve, poor fit] | – |
| CN(C)S(=O)(=O)c1cccc(NC(=O)c2cc(=O)[nH]c3ccccc23)c1 | – | inconclusive: 24% |
| CC(=O)Nc1nonc1-c1ccccc1 | inconclusive: 0.0058 µM [falling, full curve, poor fit] | – |
| Oc1ccccc1-c1nnc(COc2ccc(Cl)cc2Cl)o1 | – | inconclusive: 25.9% |
| COc1ccc(C(=O)OCC(=O)NC2CC2)cc1S(=O)(=O)N(C)Cc1ccccc1 | – | inconclusive: -28.9% |
| CCC(C)(C)NC(=O)C(c1ccc(OC)cc1)N(Cc1ccccc1)C(=O)CCC(=O)Nc1cc(C)on1 (centres undefined) | – | inconclusive: -100% |
| COC(=O)CSc1nnc(-c2ccco2)o1 | – | inconclusive: -33.4% |
| CCOC(=O)c1ccc(NC(=O)C(CC)CC)cc1 | – | inconclusive: -22.7% |
| COc1ccc(C(=O)CN2C(=O)NC3(CCCc4ccccc43)C2=O)c(OC)c1 (centres undefined) | inconclusive: 20.6 µM [falling, single point] | – |
| Fc1ccc(-c2nn(-c3ccccc3)cc2CNCc2ccccc2)cc1 | – | inconclusive: -78.7% |
| CN1CCN(C(c2ccccc2)c2ccccc2)CC1 | – | inactive: -13.1% |
| Cc1ccc(-c2[nH]ncc2/C=N/n2c(COc3ccccc3)nc3ccccc3c2=O)cc1 | inconclusive: 29.1 µM [cytotoxic, single point] | – |
| CCCCCOC(=O)C1[C@H]2C(=O)N(c3ccccc3CC)C[C@]23C=C[C@H]1O3 (some centres undefined) | – | inconclusive: 64.8% |
| CSc1nc(S(=O)(=O)c2ccc(C)cc2)c(Cl)s1 | – | inconclusive: -23.9% |

| Structure (SMILES) | Potency | lipid storage change, negative = inhibition |
| --- | --- | --- |
| COc1ccc(CCN(C)Cc2nc(-c3cnccn3)no2)cc1OC | – | inconclusive: 9.29% |
| C=CCn1c(-c2cccc(S(=O)(=O)N3CCOCC3)c2)n[nH]c1=S | – | inconclusive |
| CC(C)Oc1ccccc1OCCCOc1cccc2cccnc12 | – | inconclusive: -10.2% |
| Cc1ccc2nc(S(=O)(=O)O)[nH]c2c1 | inconclusive: 16.4 µM [falling, single point] | – |
| Cc1ccc(S(=O)(=O)N2CCCCC2CCNC(=O)C(=O)NC2CC2)cc1 (centres undefined) | – | inconclusive: -18% |
| Cc1ccc2c(c1)N(C(=O)CCC(=O)Nc1ccccc1Cl)CC(C)O2 (centres undefined) | – | inconclusive: 30.1% |
| O=C(CSc1nc2c(oc3ccccc32)c(=O)n1CC1CCCO1)NCc1ccc(F)cc1 (centres undefined) | – | inconclusive: 40.6% |
| O=C(Nc1cc(C(F)(F)F)ccc1Cl)C1CCN(c2nnc(-n3cccc3)s2)CC1 | – | inconclusive: -16.2% |
| Cc1cc(C)nc(SCc2cn3c(C)cc(C)nc3n2)n1 | – | inconclusive: 14.9% |
| CCC(Oc1ccccc1F)C(=O)NCCN1CCOCC1 (centres undefined) | – | inconclusive: -31.3% |
| O=C(CC(=O)Nc1ccc(F)cc1F)Nc1ccc(F)cc1F | – | inconclusive: 9.7% |
| O=c1cc(-c2ccccc2F)oc2ccccc12 | – | inconclusive: -15% |
| O=C(NC(=S)Nc1ccccn1)c1ccccc1 | – | inconclusive: 38.3% |
| CCN(CC)C(=O)c1ccc(Oc2ccc([N+](=O)[O-])cc2Cl)cc1 | – | inconclusive: 4.63% |
| O=C(O)COc1c(-c2ccco2)oc2ccccc2c1=O | – | inconclusive: -19.8% |
| N#Cc1c(SCC(=O)Nc2cccc(F)c2)sc2c(O)cc(=O)[nH]c12 | – | inconclusive: 9.38% |
| O=S(=O)(Nc1cccc(-c2nc3cccnc3s2)c1)c1ccc2c(c1)OCCO2 | inconclusive: 1.64 µM [activator, partial curve] | – |
| Cc1cccc2c3nc4ccccc4nc3n(CCCN3C(=O)c4ccccc4C3=O)c12 | – | inconclusive: -3.7% |
| O=C(Oc1ccc(F)cc1)c1ccc2c(=O)n3c(nc2c1)CCC3 | – | inconclusive |

Full records from above. Values in the order: Potency | lipid storage change, negative = inhibition
COc1ccc(CCN(C)Cc2nc(-c3cnccn3)no2)cc1OC in the list: – | inconclusive: 9.29%
Cc1ccc(-c2[nH]ncc2/C=N/n2c(COc3ccccc3)nc3ccccc3c2=O)cc1 in the list: inconclusive: 29.1 µM [cytotoxic, single point] | –
